Measurements reported in patent US20080274954A1.
No constants are given. Whether binding was seen depends on the method and setting. For some assays here: In cells and extracts the contact can be indirect. Some results given as binding are weak or reduced against the parent protein; the word gives no strength.

The chains behind the UniProt entries cited, without tags or fusion partners. Where a name states a change or a piece, a line headed by the entry shows the natural chain unless it says otherwise. Residues count along the entry.
UniProt Q13153, residues 67-150: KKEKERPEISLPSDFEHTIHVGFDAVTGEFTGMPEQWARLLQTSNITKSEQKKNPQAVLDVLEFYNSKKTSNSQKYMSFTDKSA
UniProt P60766: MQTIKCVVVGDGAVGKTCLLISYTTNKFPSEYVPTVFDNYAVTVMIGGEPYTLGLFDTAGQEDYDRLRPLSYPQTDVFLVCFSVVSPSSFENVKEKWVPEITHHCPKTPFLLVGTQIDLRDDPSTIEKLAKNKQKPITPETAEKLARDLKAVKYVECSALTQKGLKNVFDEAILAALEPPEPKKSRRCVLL

Key:
[1] = molecular target: GST-fusion protein prepared by adding a GST-tag to a binding domain of PAK-1 to an active Rho family protein, conjugated to glutathione agarose (effector bead, UPSTATE) (UniProt Q13153); assay: PAK-1 pull down method, anti-FLAG Western blot (FIG. 2, upper panel)
[2] = molecular target: GST-fusion protein prepared by adding a GST-tag to a binding domain of PAK-1 to an active Rho family protein, conjugated to glutathione agarose (effector bead, UPSTATE) (UniProt Q13153); assay: effector pull-down of cell lysate with GST-PAK-1 binding domain on glutathione agarose, anti-FLAG Western blot

binding [1]: binds
binding [2]: binds
Substance: Cdc42 (SEQ ID NO: 12) expressed as an N-terminal 3x FLAG-tagged protein (from UniProt P60766 1-191)
